Data: PubChem BioAssay AID504444 (National Center for Advancing Translational Sciences (NCATS), 2011)
Screen size: about 360,000 compounds; about 7,500 (2.1%) were called active. Inconclusive means that the source gave no clear call. Such entries were picked first, then a sample of the others. Calls follow the shape of the dose curve; as a rule, active = well fitted inhibition curve with a large enough effect; inconclusive = small, poorly fitted or top-dose-only effect, or effect the other way; inactive = flat fitted curve, though single readings scatter. Potencies beside an inconclusive call are fits to weak or partial responses and may not hold up.

test: Nrf2 qHTS screen for inhibitors; settings: A549 ARE-Fluc reporter, luciferase luminescence, 18-24 h; activity change, negative = inhibition: at 46 µM (top of the series); also: nearly all actives have a fitted effect of over 60% in size
Outline: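 Two sequential reads on A549 ARE_Fluc cells exposed to compound for 18-24 h: a CellTiter-Fluor fluorescence read for viability, then a luciferase luminescence read for Nrf2/ARE activity.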
% is scaled to controls: 0 for no effect and ±100 for the full control effect; potency is read from the fitted curve at half-maximal effect.

Q: With `O=[N+]([O-])c1ccc(Sc2ccc(Cl)c(Cl)c2)nc1` as the molecule, how does the Potency read?
A: inactive

Q: For `O=C(c1c(F)cccc1F)N1CCCC(c2nc(-c3cccs3)no2)C1` (configuration not stated), which Potency is on record?
A: inconclusive: 8.2 µM [activator, partial curve, poor fit]

Q: With `Cn1c(CNc2ccc(F)cc2)nc2ccccc21` as the molecule, how does the Potency read?
A: inconclusive: 1.84 µM [activator, full curve]

Q: With `CCCCCn1c(C(C)NC(=O)c2ccccc2)nc2ccccc21` (configuration not stated) as the molecule, how does the activity change, negative = inhibition read?
A: inactive: -11.5% [at 9.27 µM]

Q: With `O=S(=O)(N[C@H]1C[C@@H](NS(=O)(=O)OCC(Cl)(Cl)Cl)C2CCCCC21)OCC(Cl)(Cl)Cl` (some centres not stated) as the molecule, how does the Potency read?
A: inconclusive: 23.1 µM [falling, single point]

Q: With `COc1ccc(CN(C)Cc2nc(Cc3cccc(F)c3)no2)c2cccnc12` as the molecule, how does the Potency read?
A: active: 3.26 µM

Q: With `CCOC(=O)c1cc2c(ccn2C)n1Cc1ccccc1C` as the molecule, how does the Potency read?
A: inconclusive: 32.6 µM [falling, partial curve, poor fit]

Q: With `CCn1c(SCc2ccc(F)cc2)nnc1C1CCN(S(=O)(=O)c2ccc(OC)cc2)CC1` as the molecule, how does the Potency read?
A: inconclusive: 16.4 µM [falling, partial curve, poor fit]

Q: With `CC(C)(C)OC(=O)N[C@@H](Cc1ccccc1)C(=O)N1CCC(C(=O)O)CC1` as the molecule, how does the Potency read?
A: inconclusive: 0.0231 µM [activator, full curve, poor fit]

Q: Which Potency does the source give for `O=C1CSC(=Nc2ccc(Cl)cc2)N1Cc1ccco1` here?
A: inconclusive: 25.9 µM [falling, single point]

Q: With `CC(=O)OCC(=O)[C@@]1(O)CCC2C3CCC4=CC(=O)CCC4(C)C3C(=O)CC21C` (some centres not stated) as the molecule, how does the Potency read?
A: inactive

Q: For `Cc1cc(C)c2nc(-c3ccccn3)cc(C(=O)NCc3ccc(S(N)(=O)=O)cc3)c2c1`, which Potency is on record?
A: inconclusive: 20.6 µM [falling, single point]

Q: Which Potency does the source give for `CCc1ccc(NC(=O)CSc2nncn2-c2cccnc2)cc1` here?
A: inconclusive: 14.6 µM [activator, partial curve, poor fit]

Q: For `Cc1nn(Cc2ccccc2)c(C)c1CNC(=O)CN=C1NS(=O)(=O)c2ccccc21`, which Potency is on record?
A: inconclusive: 29.1 µM [activator, partial curve, poor fit]

Q: Which Potency does the source give for `CCOc1ccccc1NC(=O)Cn1cc(C(=O)c2cccc(OC)c2)c(=O)c2ccc(C)nc21` here?
A: inconclusive: 29.1 µM [falling, single point]

Q: Which Potency does the source give for `O=C(Cn1c(=O)c2cccn2c2ccccc21)NCCc1ccccc1` here?
A: inconclusive: 18.4 µM [falling, single point]

Q: For `CCOC(=O)C1Cn2c(nc3c(c2=O)C(C)(C)Cc2ccccc2-3)S1` (configuration not stated), which Potency is on record?
A: inactive

Q: With `CCOc1cc(CNc2ccc(O)cc2)ccc1OCc1ccc(Cl)cc1Cl` as the molecule, how does the Potency read?
A: inconclusive: 29.1 µM [falling, single point]

Q: Which Potency does the source give for `CCOc1ccccc1C(=O)Nc1ccc(S(=O)(=O)Nc2nc(C)cc(C)n2)cc1` here?
A: inconclusive: 1.84 µM [falling, full curve, poor fit]

Q: With `Cc1ccc2[nH]c(-c3cccc(F)c3)cc(=O)c2c1` as the molecule, how does the Potency read?
A: inconclusive: 18.4 µM [activator, partial curve]

Q: With `c1coc(-c2nc3ccccc3s2)c1` as the molecule, how does the Potency read?
A: inconclusive: 13 µM [activator, partial curve]

Q: For `O=C(CSc1nnc(CNC(=O)c2cccc(F)c2)n1-c1ccccc1)Nc1ccccc1F`, which Potency is on record?
A: inactive

Q: Which Potency does the source give for `CC(=O)c1ccc(OCC(O)CN2CCOCC2)cc1` (configuration not stated) here?
A: inactive

Q: Which Potency does the source give for `CCN1CCN(c2nc3c(S(=O)(=O)c4ccc(Br)cc4)nnn3c3ccsc23)CC1` here?
A: inconclusive: 29.1 µM [activator, single point]

Q: Which Potency does the source give for `C=CCN(C)CC/C=C1\c2ccccc2CSc2ccccc21` here?
A: inactive

Q: For `Cc1cccc(-c2nc(CSCC(=O)N3CCN(Cc4ccc5c(c4)OCO5)CC3)c(C)o2)c1`, which Potency is on record?
A: active: 20.6 µM

Q: Which Potency does the source give for `COc1cc(-c2cc(OC)c3c(C)oc(C)c3c(=O)c2)ccc1OC(=O)c1ccccc1Cl` here?
A: inconclusive: 5.8 µM [falling, full curve]

Q: For `Cc1ccccc1NCC(=O)N=Nc1c(O)[nH]c2ccc([N+](=O)[O-])cc12`, which Potency is on record?
A: inconclusive: 18.4 µM [falling, single point]

Q: For `COc1ccc(NS(=O)(=O)c2cccc(C(=O)N3CCCC(C)C3)c2)cc1` (configuration not stated), which Potency is on record?
A: inconclusive: 25.9 µM [falling, partial curve, poor fit]

Q: With `COc1cc(Cl)c(NC(=O)CCS(=O)(=O)c2cc3c(cc2Cl)NC(=O)CO3)c(OC)c1` as the molecule, how does the Potency read?
A: inconclusive: 29.1 µM [activator, partial curve, poor fit]

Q: For `COc1ccccc1OCCSc1nc(N)cc(N)n1`, which Potency is on record?
A: inactive

Q: With `Cc1ccc2nc(N3CCN(c4cccc(Cl)c4)CC3)c(-n3nc(C)cc3C)nc2c1` as the molecule, how does the Potency read?
A: inactive

Q: With `O=C(CSc1ccc(-c2ccccc2)nn1)c1cccs1` as the molecule, how does the Potency read?
A: inconclusive: 5.8 µM [activator, full curve]

Q: With `Clc1ccc(-c2csc(N/N=C/c3ccco3)n2)cc1` as the molecule, how does the Potency read?
A: inconclusive: 32.6 µM [activator, partial curve, poor fit]

Q: Which Potency does the source give for `CCOC(=O)C1=C(CN2CCC(C)CC2)NC(=O)NC1c1ccc(F)cc1` (configuration not stated) here?
A: inconclusive: 20.6 µM [activator, partial curve, poor fit]

Q: For `CSc1cccc(NC(=S)N2CCC(N(C)C3CCCCC3C)CC2)c1` (configuration not stated), which Potency is on record?
A: inconclusive: 16.4 µM [falling, partial curve, poor fit]

Q: With `Cc1ccccc1N1CC(c2nc3ccccc3n2CCC2CCCCC2)CC1=O` (configuration not stated) as the molecule, how does the Potency read?
A: active: 23.1 µM

Q: Which Potency does the source give for `COc1ccc2cc(C(=O)NCC3CCCO3)[nH]c2c1` (configuration not stated) here?
A: inconclusive: 2.91 µM [activator, full curve, poor fit]

Q: For `Cc1ccc(C(C)C)c(OCC(=O)NCC2(N(C)C)CCCCC2)c1`, which Potency is on record?
A: inconclusive: 29.1 µM [activator, partial curve, poor fit]

Q: Which Potency does the source give for `COc1ccc(CCn2cc3c(c2-c2ccc(Br)cc2)c(=O)n(C)c(=O)n3C)cc1OC` here?
A: inactive

Q: For `CCOC(=O)C1CCCN(CC(=O)Nc2ccc(C(=O)Nc3ccccc3OC)cc2)C1` (configuration not stated), which Potency is on record?
A: inconclusive: 1.84 µM [falling, partial curve]

Q: Which Potency does the source give for `O=C1CC(c2cc(Br)ccc2F)c2cc3c(cc2N1)CCC3` (configuration not stated) here?
A: inconclusive: 16.4 µM [falling, partial curve, poor fit]
